Taken from: PubChem BioAssay AID1259285 (Sanger Institute, 2017)
Shown is an unselected part of 794 reagents tested. In the full data, 20 (2.5%) were called active. 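Calls rest on the drug-free arm alone and ignore synergy scores; viability ratios seem to be capped at 1.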 A number with no mark means an inactive call. Not given: the amount of reagent, the time to read-out.

- Screen: 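Search of the kinome for kinases worth combining with drugs in colon cancer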 (primary screen)
- System: human HCC56 colorectal cancer cells
- Knock-down reagent: siRNA pool against human genes
- Treatment: DMSO vehicle, or anchor drug BYL719 at 1 µM, cetuximab at 5 µg/ml, or trametinib at 10 nM
- Read-out: 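Viability as a ratio to non-targeting pool wells, averaged over replicates and turned into a robust z-score; synergy scores with BYL719, cetuximab or trametinib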
- Direction: viability robust z-score, no drug: higher = more viable cells, weaker knock-down effect; viability vs non-targeting pool, no drug: higher = more viable cells; synergy score with BYL719: higher = stronger combined killing with BYL719; synergy score with cetuximab: higher = stronger combined killing with cetuximab; synergy score with trametinib: higher = stronger combined killing with trametinib
- Hit rule: 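a knock-down counts as essential if its viability z-score without drug is under -3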
- Meaning of the calls: active = essential without drug; inactive = no change without drug

gene,"viability robust z-score, no drug","viability vs non-targeting pool, no drug",synergy score with BYL719,synergy score with cetuximab,synergy score with trametinib
GRK2,0.458,1,-0.162,-0.142,-0.324
CAMK4,-0.162,0.947,-0.13,-0.188,0.123
NEK1,0.458,1,-0.0615,-0.142,-0.0574
BRDT,0.458,1,-0.161,-0.142,-0.202
FGFR2,0.458,1,-0.162,-0.142,-0.257
PI4K2B,0.253,0.982,-0.104,-0.0456,-0.2
CSNK2A2,0.458,1,-0.101,-0.111,-0.0273
PTK2,0.458,1,0.0038,0.0944,0.0229
ETNK2,-1.65,0.819,-0.0636,0.063,0.0698
IRAK4,-1.2,0.858,-0.0868,0.066,0.0169
MVK,0.458,1,0.0219,-0.0122,-0.0262
TAF1,0.458,1,-0.098,-0.142,-0.0852
TEX14,0.458,1,-0.162,-0.142,-0.154
MAPK14,0.458,1,0.0625,-0.0734,-0.0405
FN3KRP,-1.7,0.815,0.0285,0.0591,0.0466
ALPK2,0.458,1,-0.11,-0.142,-0.125
CILK1,0.458,1,0.0182,0.119,0.0892
TCF12,0.458,1,-0.1,-0.0575,-0.0451

Reprinted from the listing (2 entries):
gene,"viability robust z-score, no drug","viability vs non-targeting pool, no drug",synergy score with BYL719,synergy score with cetuximab,synergy score with trametinib
GRK2,0.458,1,-0.162,-0.142,-0.324
CAMK4,-0.162,0.947,-0.13,-0.188,0.123

The listing continues.
gene,"viability robust z-score, no drug","viability vs non-targeting pool, no drug",synergy score with BYL719,synergy score with cetuximab,synergy score with trametinib
MAPK13,0.458,1,-0.011,-0.0112,0.11
CDK18,0.458,1,-0.101,-0.0476,-0.0868
CALM3,0.458,1,-0.162,-0.142,-0.134
DMPK,0.458,1,-0.162,-0.142,-0.284
SKAP1,0.458,1,-0.162,-0.142,-0.103
PFKP,0.309,0.987,0.0173,-0.0714,0.0467
CRKL,-0.367,0.929,-0.00613,-0.101,0.00549
PDGFRB,-2.06,0.783,0.0644,0.127,0.0424
AKAP9,0.458,1,-0.0598,-0.121,-0.0196
NUP107,-0.632,0.906,0.0148,0.0352,0.0858
XYLB,0.458,1,-0.00345,0.00939,0.0494
IKBKG,0.458,1,0.0607,0.0225,0.0795
MPP3,0.309,0.987,-0.0813,0.00569,0.0926
PDK1,0.458,1,-0.052,-0.142,0.0283
PIK3C2B,-0.291,0.936,0.00704,0.0338,0.0329
FN3K,0.319,0.988,-0.0687,-0.0653,0.0713
